# Measured values reported in PMC7710275.
# Protein sequences, listed by entry. Tags and fused reporters are not part of them. Lines headed by an entry give the natural chain unless they say otherwise; changes in a name come on top.
# UniProt Q9H4A3: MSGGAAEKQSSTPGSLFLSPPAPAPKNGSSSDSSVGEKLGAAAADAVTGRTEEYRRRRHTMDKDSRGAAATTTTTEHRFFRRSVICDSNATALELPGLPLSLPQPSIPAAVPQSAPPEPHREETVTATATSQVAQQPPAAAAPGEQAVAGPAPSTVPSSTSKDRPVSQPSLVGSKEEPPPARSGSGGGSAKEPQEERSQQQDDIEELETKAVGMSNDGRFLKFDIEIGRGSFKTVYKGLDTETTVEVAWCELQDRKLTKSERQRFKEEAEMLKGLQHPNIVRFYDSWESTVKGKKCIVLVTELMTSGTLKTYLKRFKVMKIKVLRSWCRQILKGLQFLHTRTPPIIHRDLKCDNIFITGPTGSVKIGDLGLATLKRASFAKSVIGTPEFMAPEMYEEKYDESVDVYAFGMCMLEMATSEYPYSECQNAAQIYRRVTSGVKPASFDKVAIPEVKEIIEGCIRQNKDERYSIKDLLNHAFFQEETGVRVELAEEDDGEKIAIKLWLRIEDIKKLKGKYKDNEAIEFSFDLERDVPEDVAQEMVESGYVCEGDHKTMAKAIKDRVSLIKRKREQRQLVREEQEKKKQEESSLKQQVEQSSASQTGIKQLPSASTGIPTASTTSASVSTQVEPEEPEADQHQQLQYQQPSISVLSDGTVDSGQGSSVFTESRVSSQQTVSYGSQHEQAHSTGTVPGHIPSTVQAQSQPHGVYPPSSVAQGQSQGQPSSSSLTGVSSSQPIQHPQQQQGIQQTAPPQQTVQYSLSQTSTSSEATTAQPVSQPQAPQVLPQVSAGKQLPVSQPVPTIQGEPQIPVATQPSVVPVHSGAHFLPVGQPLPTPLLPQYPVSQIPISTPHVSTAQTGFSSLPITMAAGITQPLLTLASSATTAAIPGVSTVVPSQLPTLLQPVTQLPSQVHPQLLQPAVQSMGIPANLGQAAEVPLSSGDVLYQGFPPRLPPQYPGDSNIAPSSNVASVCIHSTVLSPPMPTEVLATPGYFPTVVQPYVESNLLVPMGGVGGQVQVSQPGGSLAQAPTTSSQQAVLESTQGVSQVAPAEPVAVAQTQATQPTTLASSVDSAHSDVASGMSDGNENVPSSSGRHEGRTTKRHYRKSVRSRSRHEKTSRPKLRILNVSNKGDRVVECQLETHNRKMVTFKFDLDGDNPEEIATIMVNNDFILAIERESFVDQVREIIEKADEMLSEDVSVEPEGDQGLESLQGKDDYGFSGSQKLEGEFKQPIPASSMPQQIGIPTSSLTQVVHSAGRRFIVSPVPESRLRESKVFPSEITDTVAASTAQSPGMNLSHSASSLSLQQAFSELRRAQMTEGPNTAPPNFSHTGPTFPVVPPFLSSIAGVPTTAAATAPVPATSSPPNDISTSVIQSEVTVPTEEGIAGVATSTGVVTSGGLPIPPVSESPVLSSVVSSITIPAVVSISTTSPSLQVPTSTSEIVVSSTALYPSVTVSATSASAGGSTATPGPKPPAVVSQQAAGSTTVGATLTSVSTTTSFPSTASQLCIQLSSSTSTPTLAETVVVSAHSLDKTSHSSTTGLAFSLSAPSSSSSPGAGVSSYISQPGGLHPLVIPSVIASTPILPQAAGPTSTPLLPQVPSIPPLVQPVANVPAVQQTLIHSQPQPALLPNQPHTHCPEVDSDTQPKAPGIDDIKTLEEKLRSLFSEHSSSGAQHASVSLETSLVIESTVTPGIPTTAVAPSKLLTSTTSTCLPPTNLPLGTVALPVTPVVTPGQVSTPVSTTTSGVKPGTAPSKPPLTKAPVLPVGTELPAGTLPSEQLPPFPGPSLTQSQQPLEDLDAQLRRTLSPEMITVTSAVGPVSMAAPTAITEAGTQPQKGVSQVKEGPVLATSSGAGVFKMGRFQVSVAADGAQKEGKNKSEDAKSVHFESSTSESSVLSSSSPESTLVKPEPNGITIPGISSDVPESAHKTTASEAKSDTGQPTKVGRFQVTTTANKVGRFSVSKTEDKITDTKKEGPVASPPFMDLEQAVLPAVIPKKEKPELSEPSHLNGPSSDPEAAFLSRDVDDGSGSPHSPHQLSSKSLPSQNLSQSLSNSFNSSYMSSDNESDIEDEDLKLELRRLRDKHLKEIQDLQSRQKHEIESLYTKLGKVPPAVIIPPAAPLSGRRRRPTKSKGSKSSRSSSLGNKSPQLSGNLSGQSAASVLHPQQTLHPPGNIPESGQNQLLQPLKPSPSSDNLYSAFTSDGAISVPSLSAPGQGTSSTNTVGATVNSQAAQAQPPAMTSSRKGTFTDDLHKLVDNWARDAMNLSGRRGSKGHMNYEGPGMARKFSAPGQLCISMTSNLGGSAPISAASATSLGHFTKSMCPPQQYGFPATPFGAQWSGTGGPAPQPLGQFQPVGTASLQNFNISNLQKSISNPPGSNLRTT
# UniProt O95831: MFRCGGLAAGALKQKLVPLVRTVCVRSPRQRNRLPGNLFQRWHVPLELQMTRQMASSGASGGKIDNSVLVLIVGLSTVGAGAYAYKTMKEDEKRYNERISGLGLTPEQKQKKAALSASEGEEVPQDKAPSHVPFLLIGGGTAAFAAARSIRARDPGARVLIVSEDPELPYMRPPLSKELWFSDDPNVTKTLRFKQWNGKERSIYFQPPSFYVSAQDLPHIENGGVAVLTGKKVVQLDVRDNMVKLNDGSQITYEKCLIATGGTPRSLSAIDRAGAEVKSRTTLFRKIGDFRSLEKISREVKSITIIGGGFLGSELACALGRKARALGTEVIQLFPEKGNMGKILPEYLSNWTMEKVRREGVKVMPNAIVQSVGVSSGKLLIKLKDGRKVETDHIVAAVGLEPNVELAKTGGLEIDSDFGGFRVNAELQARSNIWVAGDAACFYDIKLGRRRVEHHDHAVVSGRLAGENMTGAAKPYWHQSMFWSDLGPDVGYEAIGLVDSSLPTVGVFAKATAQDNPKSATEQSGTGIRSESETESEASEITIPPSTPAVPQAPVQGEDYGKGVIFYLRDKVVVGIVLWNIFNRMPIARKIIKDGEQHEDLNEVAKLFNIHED
# UniProt Q9P219: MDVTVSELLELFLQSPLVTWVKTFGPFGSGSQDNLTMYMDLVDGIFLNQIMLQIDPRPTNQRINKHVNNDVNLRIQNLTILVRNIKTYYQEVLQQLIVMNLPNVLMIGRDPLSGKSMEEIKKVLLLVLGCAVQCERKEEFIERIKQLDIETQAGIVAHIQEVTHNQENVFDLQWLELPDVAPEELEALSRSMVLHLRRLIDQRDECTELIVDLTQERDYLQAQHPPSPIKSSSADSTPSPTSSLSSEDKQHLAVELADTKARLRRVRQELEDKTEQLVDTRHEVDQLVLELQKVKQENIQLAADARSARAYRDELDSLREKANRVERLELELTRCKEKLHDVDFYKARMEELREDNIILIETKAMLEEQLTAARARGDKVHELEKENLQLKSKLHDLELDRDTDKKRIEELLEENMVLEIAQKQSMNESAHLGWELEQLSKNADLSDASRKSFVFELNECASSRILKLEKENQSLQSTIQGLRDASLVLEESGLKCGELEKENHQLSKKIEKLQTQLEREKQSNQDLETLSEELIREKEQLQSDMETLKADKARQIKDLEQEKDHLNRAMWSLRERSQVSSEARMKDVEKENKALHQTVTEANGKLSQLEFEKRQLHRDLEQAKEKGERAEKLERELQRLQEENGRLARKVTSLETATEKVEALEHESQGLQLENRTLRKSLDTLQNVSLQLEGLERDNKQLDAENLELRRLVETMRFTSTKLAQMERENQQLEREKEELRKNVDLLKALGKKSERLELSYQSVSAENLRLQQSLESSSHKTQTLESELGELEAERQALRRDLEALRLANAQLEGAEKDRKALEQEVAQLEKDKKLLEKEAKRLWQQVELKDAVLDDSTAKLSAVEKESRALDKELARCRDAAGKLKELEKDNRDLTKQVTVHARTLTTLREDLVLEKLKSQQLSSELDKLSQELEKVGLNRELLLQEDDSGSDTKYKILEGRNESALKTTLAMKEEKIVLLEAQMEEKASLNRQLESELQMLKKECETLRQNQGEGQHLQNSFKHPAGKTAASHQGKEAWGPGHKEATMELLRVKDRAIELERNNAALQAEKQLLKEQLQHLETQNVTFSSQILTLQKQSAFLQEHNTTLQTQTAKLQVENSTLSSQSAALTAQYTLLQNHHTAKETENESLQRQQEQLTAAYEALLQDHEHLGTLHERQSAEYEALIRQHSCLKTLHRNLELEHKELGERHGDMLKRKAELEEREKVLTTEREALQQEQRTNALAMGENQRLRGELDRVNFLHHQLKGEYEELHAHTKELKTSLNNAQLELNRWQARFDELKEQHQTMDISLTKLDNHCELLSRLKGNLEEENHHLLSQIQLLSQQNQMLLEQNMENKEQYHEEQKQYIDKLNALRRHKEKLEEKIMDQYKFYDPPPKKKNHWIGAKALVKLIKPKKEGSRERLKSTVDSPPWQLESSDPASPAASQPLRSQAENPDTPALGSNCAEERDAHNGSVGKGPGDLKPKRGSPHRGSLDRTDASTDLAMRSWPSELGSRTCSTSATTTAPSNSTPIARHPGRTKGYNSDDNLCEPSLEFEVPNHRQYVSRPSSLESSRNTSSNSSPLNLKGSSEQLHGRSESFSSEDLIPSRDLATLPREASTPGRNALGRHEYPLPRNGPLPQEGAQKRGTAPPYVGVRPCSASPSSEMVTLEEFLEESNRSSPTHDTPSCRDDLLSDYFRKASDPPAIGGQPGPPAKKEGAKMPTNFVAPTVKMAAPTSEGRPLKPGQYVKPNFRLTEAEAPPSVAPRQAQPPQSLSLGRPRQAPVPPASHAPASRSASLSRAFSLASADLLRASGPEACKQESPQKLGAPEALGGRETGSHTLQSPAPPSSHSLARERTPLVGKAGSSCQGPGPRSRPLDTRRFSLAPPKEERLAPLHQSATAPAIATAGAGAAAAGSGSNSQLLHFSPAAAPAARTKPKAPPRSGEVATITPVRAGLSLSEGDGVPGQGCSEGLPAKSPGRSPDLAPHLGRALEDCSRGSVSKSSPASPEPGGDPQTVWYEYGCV
# UniProt Q15436: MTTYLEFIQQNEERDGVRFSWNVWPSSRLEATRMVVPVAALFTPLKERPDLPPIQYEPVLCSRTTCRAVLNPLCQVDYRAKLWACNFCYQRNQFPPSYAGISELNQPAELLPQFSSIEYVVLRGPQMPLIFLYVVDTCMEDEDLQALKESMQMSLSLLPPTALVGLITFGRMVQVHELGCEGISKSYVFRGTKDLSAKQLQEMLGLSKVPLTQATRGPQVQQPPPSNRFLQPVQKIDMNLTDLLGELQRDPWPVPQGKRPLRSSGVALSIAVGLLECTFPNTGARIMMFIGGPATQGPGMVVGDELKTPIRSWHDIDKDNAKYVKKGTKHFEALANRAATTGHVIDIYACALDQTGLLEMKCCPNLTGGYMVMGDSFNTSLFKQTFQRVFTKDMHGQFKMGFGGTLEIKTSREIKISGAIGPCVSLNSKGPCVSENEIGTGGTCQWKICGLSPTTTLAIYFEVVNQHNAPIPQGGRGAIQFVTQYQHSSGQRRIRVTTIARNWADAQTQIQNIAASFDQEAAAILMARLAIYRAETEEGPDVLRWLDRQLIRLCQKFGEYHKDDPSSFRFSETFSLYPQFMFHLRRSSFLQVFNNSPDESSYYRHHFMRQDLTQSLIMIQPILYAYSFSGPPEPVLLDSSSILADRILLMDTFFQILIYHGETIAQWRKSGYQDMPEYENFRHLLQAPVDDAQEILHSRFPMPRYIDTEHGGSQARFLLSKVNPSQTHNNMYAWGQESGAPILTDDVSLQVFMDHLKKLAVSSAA
# UniProt O95747: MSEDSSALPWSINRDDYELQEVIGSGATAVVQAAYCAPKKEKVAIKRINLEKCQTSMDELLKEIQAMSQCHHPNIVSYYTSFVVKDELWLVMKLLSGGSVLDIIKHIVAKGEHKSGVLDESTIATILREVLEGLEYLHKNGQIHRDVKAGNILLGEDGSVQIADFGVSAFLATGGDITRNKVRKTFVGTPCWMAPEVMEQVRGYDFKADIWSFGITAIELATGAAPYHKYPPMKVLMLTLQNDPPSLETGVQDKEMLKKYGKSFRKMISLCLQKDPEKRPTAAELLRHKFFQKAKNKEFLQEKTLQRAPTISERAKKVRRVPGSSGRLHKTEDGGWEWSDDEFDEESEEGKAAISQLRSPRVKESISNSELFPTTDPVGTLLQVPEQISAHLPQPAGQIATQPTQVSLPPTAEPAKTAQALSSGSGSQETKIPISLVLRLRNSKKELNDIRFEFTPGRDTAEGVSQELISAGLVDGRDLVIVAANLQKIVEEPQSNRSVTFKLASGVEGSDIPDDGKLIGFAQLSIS
# These are yes or no findings as the source states them, for the method shown. Binding seen in cells or lysates may run through a third protein. These calls come from enrichment with a bait or labelling near it, and not all partners need be listed.
# B1: HYOU1 (protein, UniProt Q9Y4L1 33-999)
# chain: LAVMSVDLGSESMKVAIVKPGVPMEIVLNKESRRKTPVIVTLKENERFFGDSAASMAIKNPKATLRYFQHLLGKQADNPHVALYQARFPEHELTFDPQRQTVHFQISSQLQFSPEEVLGMVLNYSRSLAEDFAEQPIKDAVITVPVFFNQAERRAVLQAARMAGLKVLQLINDNTATALSYGVFRRKDINTTAQNIMFYDMGSGSTVCTIVTYQMVKTKEAGMQPQLQIRGVGFDRTLGGLEMELRLRERLAGLFNEQRKGQRAKDVRENPRAMAKLLREANRLKTVLSANADHMAQIEGLMDDVDFKAKVTRVEFEELCADLFERVPGPVQQALQSAEMSLDEIEQVILVGGATRVPRVQEVLLKAVGKEELGKNINADEAAAMGAVYQAAALSKAFKVKPFVVRDAVVYPILVEFTREVEEEPGIHSLKHNKRVLFSRMGPYPQRKVITFNRYSHDFNFHINYGDLGFLGPEDLRVFGSQNLTTVKLKGVGDSFKKYPDYESKGIKAHFNLDESGVLSLDRVESVFETLVEDSAEEESTLTKLGNTISSLFGGGTTPDAKENGTDTVQEEEESPAEGSKDEPGEQVELKEEAEAPVEDGSQPPPPEPKGDATPEGEKATEKENGDKSEAQKPSEKAEAGPEGVAPAPEGEKKQKPARKRRMVEEIGVELVVLDLPDLPEDKLAQSVQKLQDLTLRDLEKQEREKAANSLEAFIFETQDKLYQPEYQEVSTEEQREEISGKLSAASTWLEDEGVGATTVMLKEKLAELRKLCQGLFFRVEERKKWPERLSALDNLLNHSSMFLKGARLIPEMDQIFTEVEMTTLEKVINETWAWKNATLAEQAKLPATEKPVLLSKDIEAKMMALDREVQYLLNKAKFTKPRPRPKDKNGTRAEPPLNASASDQGEKVIPPAGQTEDAEPISEPEKVETGSEPGDTEPLELGGPGAEPEQKEQSTGQKRPLKNDEL
# B2: EMC1 (protein, UniProt Q8N766 23-993)
# chain: YEDQVGKFDWRQQYVGKVKFASLEFSPGSKKLVVATEKNVIAALNSRTGEILWRHVDKGTAEGAVDAMLLHGQDVITVSNGGRIMRSWETNIGGLNWEITLDSGSFQALGLVGLQESVRYIAVLKKTTLALHHLSSGHLKWVEHLPESDSIHYQMVYSYGSGVVWALGVVPFSHVNIVKFNVEDGEIVQQVRVSTPWLQHLSGACGVVDEAVLVCPDPSSRSLQTLALETEWELRQIPLQSLDLEFGSGFQPRVLPTQPNPVDASRAQFFLHLSPSHYALLQYHYGTLSLLKNFPQTALVSFATTGEKTVAAVMACRNEVQKSSSSEDGSMGSFSEKSSSKDSLACFNQTYTINLYLVETGRRLLDTTITFSLEQSGTRPERLYIQVFLKKDDSVGYRALVQTEDHLLLFLQQLAGKVVLWSREESLAEVVCLEMVDLPLTGAQAELEGEFGKKADGLLGMFLKRLSSQLILLQAWTSHLWKMFYDARKPRSQIKNEINIDTLARDEFNLQKMMVMVTASGKLFGIESSSGTILWKQYLPNVKPDSSFKLMVQRTTAHFPHPPQCTLLVKDKESGMSSLYVFNPIFGKWSQVAPPVLKRPILQSLLLPVMDQDYAKVLLLIDDEYKVTAFPATRNVLRQLHELAPSIFFYLVDAEQGRLCGYRLRKDLTTELSWELTIPPEVQRIVKVKGKRSSEHVHSQGRVMGDRSVLYKSLNPNLLAVVTESTDAHHERTFIGIFLIDGVTGRIIHSSVQKKAKGPVHIVHSENWVVYQYWNTKARRNEFTVLELYEGTEQYNATAFSSLDRPQLPQVLQQSYIFPSSISAMEATITERGITSRHLLIGLPSGAILSLPKALLDPRRPEIPTEQSREENLIPYSPDVQIHAERFINYNQTVSRMRGIYTAPSGLESTCLVVAYGLDIYQTRVYPSKQFDVLKDDYDYVLISSVLFGLVFATMITKRLAQVKLLNRAWR
# B3: HM13 (protein, UniProt Q8TCT9 1-377)
# chain: MDSALSDPHNGSAEAGGPTNSTTRPPSTPEGIALAYGSLLLMALLPIFFGALRSVRCARGKNASDMPETITSRDAARFPIIASCTLLGLYLFFKIFSQEYINLLLSMYFFVLGILALSHTISPFMNKFFPASFPNRQYQLLFTQGSGENKEEIINYEFDTKDLVCLGLSSIVGVWYLLRKHWIANNLFGLAFSLNGVELLHLNNVSTGCILLGGLFIYDVFWVFGTNVMVTVAKSFEAPIKLVFPQDLLEKGLEANNFAMLGLGDVVIPGIFIALLLRFDISLKKNTHTYFYTSFAAYIFGLGLTIFIMHIFKHAQPALLYLVPACIGFPVLVALAKGEVTEMFSYEESNPKDPAAVTESKEGTEASASKGLEKKEK
# B4: PPP6R3 (protein, UniProt Q5H9R7 1-873)
# chain: MFWKFDLHSSSHIDTLLEREDVTLKELMDEEDVLQECKAQNRKLIEFLLKAECLEDLVSFIIEEPPQDMDEKIRYKYPNISCELLTSDVSQMNDRLGEDESLLMKLYSFLLNDSPLNPLLASFFSKVLSILISRKPEQIVDFLKKKHDFVDLIIKHIGTSAIMDLLLRLLTCIEPPQPRQDVLNWLNEEKIIQRLVEIVHPSQEEDRHSNASQSLCEIVRLSRDQMLQIQNSTEPDPLLATLEKQEIIEQLLSNIFHKEKNESAIVSAIQILLTLLETRRPTFEGHIEICPPGMSHSACSVNKSVLEAIRGRLGSFHELLLEPPKKSVMKTTWGVLDPPVGNTRLNVIRLISSLLQTNTSSINGDLMELNSIGVILNMFFKYTWNNFLHTQVEICIALILASPFENTENATITDQDSTGDNLLLKHLFQKCQLIERILEAWEMNEKKQAEGGRRHGYMGHLTRIANCIVHSTDKGPNSALVQQLIKDLPDEVRERWETFCTSSLGETNKRNTVDLVTTCHIHSSSDDEIDFKETGFSQDSSLQQAFSDYQMQQMTSNFIDQFGFNDEKFADQDDIGNVSFDRVSDINFTLNTNESGNIALFEACCKERIQQFDDGGSDEEDIWEEKHIAFTPESQRRSSSGSTDSEESTDSEEEDGAKQDLFEPSSANTEDKMEVDLSEPPNWSANFDVPMETTHGAPLDSVGSDVWSTEEPMPTKETGWASFSEFTSSLSTKDSLRSNSPVEMETSTEPMDPLTPSAAALAVQPEAAGSVAMEASSDGEEDAESTDKVTETVMNGGMKETLSLTVDAKTETAVFKSEEGKLSTSQDAACKDAEECPETAEAKCAAPRPPSSSPEQRTGQPSAPGDTSVNGPV
# B5: OFD1 (protein, UniProt O75665 1-1012)
# chain: MMAQSNMFTVADVLSQDELRKKLYQTFKDRGILDTLKTQLRNQLIHELMHPVLSGELQPRSISVEGSSLLIGASNSLVADHLQRCGYEYSLSVFFPESGLAKEKVFTMQDLLQLIKINPTSSLYKSLVSGSDKENQKGFLMHFLKELAEYHQAKESCNMETQTSSTFNRDSLAEKLQLIDDQFADAYPQRIKFESLEIKLNEYKREIEEQLRAEMCQKLKFFKDTEIAKIKMEAKKKYEKELTMFQNDFEKACQAKSEALVLREKSTLERIHKHQEIETKEIYAQRQLLLKDMDLLRGREAELKQRVEAFELNQKLQEEKHKSITEALRRQEQNIKSFEETYDRKLKNELLKYQLELKDDYIIRTNRLIEDERKNKEKAVHLQEELIAINSKKEELNQSVNRVKELELELESVKAQSLAITKQNHMLNEKVKEMSDYSLLKEEKLELLAQNKLLKQQLEESRNENLRLLNRLAQPAPELAVFQKELRKAEKAIVVEHEEFESCRQALHKQLQDEIEHSAQLKAQILGYKASVKSLTTQVADLKLQLKQTQTALENEVYCNPKQSVIDRSVNGLINGNVVPCNGEISGDFLNNPFKQENVLARMVASRITNYPTAWVEGSSPDSDLEFVANTKARVKELQQEAERLEKAFRSYHRRVIKNSAKSPLAAKSPPSLHLLEAFKNITSSSPERHIFGEDRVVSEQPQVGTLEERNDVVEALTGSAASRLRGGTSSRRLSSTPLPKAKRSLESEMYLEGLGRSHIASPSPCPDRMPLPSPTESRHSLSIPPVSSPPEQKVGLYRRQTELQDKSEFSDVDKLAFKDNEEFESSFESAGNMPRQLEMGGLSPAGDMSHVDAAAAAVPLSYQHPSVDQKQIEEQKEEEKIREQQVKERRQREERRQSNLQEVLERERRELEKLYQERKMIEESLKIKIKKELEMENELEMSNQEIKDKSAHSENPLEKYMKIIQQEQDQESADKSSKKMVQEGSLVDTLQSSDKVESLTGFSHEELDDSW
# Target: WNK1 (with no lysine [K] kinase 1) (human (endogenous in HEC1A)) (UniProt Q9H4A3)
# Experiment: affinity purification with mass spectrometry; endogenous WNK1 immunoprecipitated from HEC1A lysate with a WNK1 antibody (rabbit IgG as negative control) on protein A/G beads; lysis buffer 50 mM Tris-HCl pH 7.5, 150 mM NaCl, 1 mM EDTA, 1% NP-40, 1% sodium deoxycholate, 0.1% SDS; gel, trypsin digest, LC/MS
row,Molecule,binding
1,B1,binds
2,B2,binds
3,B3,binds
4,B4,binds
5,B5,binds

# Target: WNK1 (with no lysine [K] kinase 1) (human (endogenous in HEC1A)) (UniProt Q9H4A3)
# Experiment: as above
# Remark: another data set of the same source
row,Molecule,binding
1,AIFM1 (from UniProt O95831),binds
2,CCDC88C (from UniProt Q9P219 1-2028),binds
3,FANCI (from UniProt Q9NVI1 1-1328),binds
4,KIF11 (from UniProt P52732 1-1056),binds
5,"PPP2R1A, the alpha isoform of the scaffold subunit A of PP2A (from UniProt P30153 1-589)",binds
6,RAD50 (from UniProt Q92878 1-1312),binds
7,SEC23A (from UniProt Q15436 1-765),binds
8,UGGT1 (from UniProt Q9NYU2 43-1555),binds
9,oxidative stress responsive kinase 1 (OXSR1/OSR1) (from UniProt O95747 1-527),binds
